Laboratory results published in US20250074980A1 (BRIGHAM AND WOMEN S HOSPITAL, published 2025).
These are yes or no findings as the source states them, for the method shown. Some binding calls cover weakened binding; strength is not graded here.

T1: CEACAM1 on transfected HeLa cells (human, UniProt P13688 35-526)
T1 construct: also called HeLa-CEACAM1; HeLa C1
T1 sequence: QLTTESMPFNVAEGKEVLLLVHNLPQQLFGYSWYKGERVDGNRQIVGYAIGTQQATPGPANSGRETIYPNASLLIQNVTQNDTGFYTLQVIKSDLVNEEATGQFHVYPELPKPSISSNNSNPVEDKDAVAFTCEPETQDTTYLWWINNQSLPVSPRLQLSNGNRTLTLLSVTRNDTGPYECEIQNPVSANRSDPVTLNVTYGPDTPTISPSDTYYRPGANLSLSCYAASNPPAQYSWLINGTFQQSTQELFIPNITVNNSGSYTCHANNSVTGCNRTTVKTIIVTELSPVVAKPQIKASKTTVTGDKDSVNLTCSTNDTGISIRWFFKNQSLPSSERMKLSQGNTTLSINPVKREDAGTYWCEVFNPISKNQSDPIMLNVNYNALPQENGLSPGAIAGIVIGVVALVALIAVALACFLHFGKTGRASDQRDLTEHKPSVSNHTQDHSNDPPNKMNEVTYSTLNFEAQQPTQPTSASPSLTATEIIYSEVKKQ

T2: GST-CEACAM1 (human, UniProt P13688 35-141, limits assumed)
T2 construct: also called human CEACAM1-GST protein
T2 sequence: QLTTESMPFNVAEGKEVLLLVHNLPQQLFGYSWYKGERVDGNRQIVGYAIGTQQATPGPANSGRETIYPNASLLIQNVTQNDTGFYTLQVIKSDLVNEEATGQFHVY


Columns and labels:
[1] = target: T1, CEACAM1 on transfected HeLa cells; assay: flow cytometry, HeLa-CEACAM1 transfectants, % staining, stacked bars
GST-CEACAM1 = target: T2, GST-CEACAM1; assay: scFv binding ELISA on GST-CEACAM1 coated at 1.0 µg/ml, anti-HIS6-HRP and TMB
Procedure: The binding of affinity matured purified scFv to human CEACAM1 was analyzed using GST-CEACAM1. A Nunc Immuno MaxiSorp 96 well flat bottom microtitre plate was pre-coated with 1.0 μg/ml GST-CEACAM1 overnight at 4° C. The following day a two-fold dilution series of VH1/Vκ8 S29A parent scFv or test scFv (50 μg/ml to 0.8 μg/ml) in PBSB was incubated for 2 hours at RT on pre-coated ELISA plates. The binding of scFv was detected with an anti-HIS6-HRP antibody and TMB substrate. The reaction was stopped with 3 M HCl, absorbance read at 450 nm on a Dynex Technologies MRX TC II plate reader and the binding curves plotted. Parent scFv (VH1/Vκ8 S29A scFv) was included on each ELISA plate as a reference. An irrelevant scFv was included on at least one plate as a negative control. It was observed that a number of scFvs had improved binding to CEACAM1 compared to the parental VH1/Vκ8 S29A scFv. […] All 34 scFv variants were reformatted to whole IgG to provide greater accuracy with regard to purity and quantitation. The reformatting further allowed for an analysis of the avidity component of antibody binding, which is influenced by the bivalent nature of IgGs. As used herein, “avidity” is the measure of the strength of binding between an antigen-binding molecule (such as an antibody or antibody fragment thereof described herein) and the pertinent antigen.

binding [1]	binding (GST-CEACAM1)	Binder
binds	–	VH1/Vκ8 S29A (antibody, IgG4, V domains shown, IgG4 (S241P), kappa; also called Parent; Parent (VH1/Vκ8 S29A)) VH: EVQLLESGGGLVQPGGSLRLSCAASGFIFSSHGMSWVRQAPGKGLEWVATISSGGTYTYYPDSVKGRFTISRDNSKNTLYLQMNSLKAEDTAMYYCARHDFDYDAAWFAYWGQGTLVTVSS VL: EIVLTQSPATLSLSPGERATLSCRANSAVSYMYWYQQKPGQAPRPWIYLTSNRATGVPARFSGSGSGTDYTLTISSLEPEDFAVYYCQQWSSNPPTFGQGTKLEIK
binds	–	8H3_9B3/CP08F05 (antibody, IgG4, V domains shown, IgG4 (S241P), kappa) VH: EVQLLESGGGLVQPGGSLRLSCAASGFTFNAHAISWVRQAPGKGLEWVATISSGGTYTYYPDSVKGRFTISRDNSKNTLYLQMNSLKAEDTAMYYCARHDFDYFPYWFAHWGQGTLVTVSS VL: EIVLTQSPATLSLSPGERATLSCRANSAVSYMYWYQQKPGQAPRPWIYLTSNRATGVPARFSGSGSGTDYTLTISSLEPEDFAVYYCQQWTSNPPTFGQGTKLEIK
binds	–	9B3_9E5/CP08E05 (antibody, IgG4, V domains shown, IgG4 (S241P), kappa) VH: EVQLLESGGGLVQPGGSLRLSCAASGFTFNAHAISWVRQAPGKGLEWVATISSGGTYTYYPDSVKGRFTISRDNSKNTLYLQMNSLKAEDTAMYYCARHGFDYDAAWFAYWGQGTLVTVSS VL: EIVLTQSPATLSLSPGERATLSCRANSAVSYMYWYQQKPGQAPRPWIYLTSNRATGVPARFSGSGSGTDYTLTISSLEPEDFAVYYCQQWTTNPPTFGQGTKLEIK
binds	–	CP08H03/CP08E05 (antibody, IgG4, V domains shown, IgG4 (S241P), kappa) VH: EVQLLESGGGLVQPGGSLRLSCAASGFIFSSHGMSWVRQAPGKGLEWVATISSGGTYTYYPDSVKGRFTISRDNSKNTLYLQMNSLKAEDTAMYYCARHDFDYFPYWFAHWGQGTLVTVSS VL: EIVLTQSPATLSLSPGERATLSCRANSAVSYMYWYQQKPGQAPRPWIYLTSNRATGVPARFSGSGSGTDYTLTISSLEPEDFAVYYCQQWTTNPPTFGQGTKLEIK
binds	–	CP09B03/CP08E05 (antibody, IgG4, V domains shown, IgG4 (S241P), kappa) VH: EVQLLESGGGLVQPGGSLRLSCAASGFTFNAHAISWVRQAPGKGLEWVATISSGGTYTYYPDSVKGRFTISRDNSKNTLYLQMNSLKAEDTAMYYCARHDFDYDAAWFAYWGQGTLVTVSS VL: EIVLTQSPATLSLSPGERATLSCRANSAVSYMYWYQQKPGQAPRPWIYLTSNRATGVPARFSGSGSGTDYTLTISSLEPEDFAVYYCQQWTTNPPTFGQGTKLEIK
–	binds	Parent (scFv) scFv, VH-linker-VL: EVQLLESGGGLVQPGGSLRLSCAASGFIFSSHGMSWVRQAPGKGLEWVATISSGGTYTYYPDSVKGRFTISRDNSKNTLYLQMNSLKAEDTAMYYCARHDFDYDAAWFAYWGQGTLVTVSSGGGGSGGGGSGGGGSEIVLTQSPATLSLSPGERATLSCRANSAVSYMYWYQQKPGQAPRPWIYLTSNRATGVPARFSGSGSGTDYTLTISSLEPEDFAVYYCQQWSSNPPTFGQGTKLEIK
–	binds	CP08D01 (scFv) scFv, VH-linker-VL: EVQLLESGGGLVQPGGSLRLSCAASGFTFNAHGMSWVRQAPGKGLEWVATISSGGTYTYYPDSVKGRFTISRDNSKNTLYLQMNSLKAEDTAMYYCARHDFDYDAAWFAYWGQGTLVTVSSGGGGSGGGGSGGGGSEIVLTQSPATLSLSPGERATLSCRANSAVSYMYWYQQKPGQAPRPWIYLTSNRATGVPARFSGSGSGTDYTLTISSLEPEDFAVYYCQQWSSNPPTFGQGTKLEIK
–	binds	CP08A06 (scFv) scFv, VH-linker-VL: EVQLLESGGGLVQPGGSLRLSCAASGYSFSSHGMSWVRQAPGKGLEWVATISSGGTYTYYPDSVKGRFTISRDNSKNTLYLQMNSLKAEDTAMYYCARHDFDYDAAWFAYWGQGTLVTVSSGGGGSGGGGSGGGGSEIVLTQSPATLSLSPGERATLSCRANSAVSYMYWYQQKPGQAPRPWIYLTSNRATGVPARFSGSGSGTDYTLTISSLEPEDFAVYYCQQWSSNPPTFGQGTKLEIK
–	binds	CP08C01 (scFv) scFv, VH-linker-VL: EVQLLESGGGLVQPGGSLRLSCAASGYSFSNHGMSWVRQAPGKGLEWVATISSGGTYTYYPDSVKGRFTISRDNSKNTLYLQMNSLKAEDTAMYYCARHDFDYDAAWFAYWGQGTLVTVSSGGGGSGGGGSGGGGSEIVLTQSPATLSLSPGERATLSCRANSAVSYMYWYQQKPGQAPRPWIYLTSNRATGVPARFSGSGSGTDYTLTISSLEPEDFAVYYCQQWSSNPPTFGQGTKLEIK
–	binds	CP08C04 (scFv, purified scFv form; the IgG form is m90) scFv, VH-linker-VL: EVQLLESGGGLVQPGGSLRLSCAASGFTFSSHGMSWVRQAPGKGLEWVATISSGGTYTYYPDSVKGRFTISRDNSKNTLYLQMNSLKAEDTAMYYCARHDFDYDAAWFAYWGQGTLVTVSSGGGGSGGGGSGGGGSEIVLTQSPATLSLSPGERATLSCRANSAVSYMYWYQQKPGQAPRPWIYLTSNRATGVPARFSGSGSGTDYTLTISSLEPEDFAVYYCQQWSSNPPTFGQGTKLEIK
–	binds	CP09F03 (scFv, purified scFv form; the IgG form is m63) scFv, VH-linker-VL: EVQLLESGGGLVQPGGSLRLSCAASGFTFNNHGMSWVRQAPGKGLEWVATISSGGTYTYYPDSVKGRFTISRDNSKNTLYLQMNSLKAEDTAMYYCARHDFDYDAAWFAYWGQGTLVTVSSGGGGSGGGGSGGGGSEIVLTQSPATLSLSPGERATLSCRANSAVSYMYWYQQKPGQAPRPWIYLTSNRATGVPARFSGSGSGTDYTLTISSLEPEDFAVYYCQQWSSNPPTFGQGTKLEIK
–	binds	CP08B11 (scFv) scFv, VH-linker-VL: EVQLLESGGGLVQPGGSLRLSCAASGFTFTNHGMSWVRQAPGKGLEWVATISSGGTYTYYPDSVKGRFTISRDNSKNTLYLQMNSLKAEDTAMYYCARHDFDYDAAWFAYWGQGTLVTVSSGGGGSGGGGSGGGGSEIVLTQSPATLSLSPGERATLSCRANSAVSYMYWYQQKPGQAPRPWIYLTSNRATGVPARFSGSGSGTDYTLTISSLEPEDFAVYYCQQWSSNPPTFGQGTKLEIK
–	binds	CP09C02 (scFv) scFv, VH-linker-VL: EVQLLESGGGLVQPGGSLRLSCAASEFTFSDHAMSWVRQAPGKGLEWVATISSGGTYTYYPDSVKGRFTISRDNSKNTLYLQMNSLKAEDTAMYYCARHGFDYDAAWFAYWGQGTLVTVSSGGGGSGGGGSGGGGSEIVLTQSPATLSLSPGERATLSCRANSAVSYMYWYQQKPGQAPRPWIYLTSNRATGVPARFSGSGSGTDYTLTISSLEPEDFAVYYCQQWSSNPPTFGQGTKLEIK
–	binds	CP09D03 (scFv) scFv, VH-linker-VL: EVQLLESGGGLVQPGGSLRLSCAASGFTFSSHAISWVRQAPGKGLEWVATISSGGTYTYYPDSVKGRFTISRDNSKNTLYLQMNSLKAEDTAMYYCARHDFDYDAAWFAYWGQGTLVTVSSGGGGSGGGGSGGGGSEIVLTQSPATLSLSPGERATLSCRANSAVSYMYWYQQKPGQAPRPWIYLTSNRATGVPARFSGSGSGTDYTLTISSLEPEDFAVYYCQQWSSNPPTFGQGTKLEIK
–	binds	CP09A04 (scFv) scFv, VH-linker-VL: EVQLLESGGGLVQPGGSLRLSCAASGFSFNAHAMSWVRQAPGKGLEWVATISSGGTYTYYPDSVKGRFTISRDNSKNTLYLQMNSLKAEDTAMYYCARHDFDYDAAWFAYWGQGTLVTVSSGGGGSGGGGSGGGGSEIVLTQSPATLSLSPGERATLSCRANSAVSYMYWYQQKPGQAPRPWIYLTSNRATGVPARFSGSGSGTDYTLTISSLEPEDFAVYYCQQWSSNPPTFGQGTKLEIK
